From paper PMC10441990 come the findings set out here.

Amino acid sequences for entries named in this document (tags omitted).
UniProt P68559: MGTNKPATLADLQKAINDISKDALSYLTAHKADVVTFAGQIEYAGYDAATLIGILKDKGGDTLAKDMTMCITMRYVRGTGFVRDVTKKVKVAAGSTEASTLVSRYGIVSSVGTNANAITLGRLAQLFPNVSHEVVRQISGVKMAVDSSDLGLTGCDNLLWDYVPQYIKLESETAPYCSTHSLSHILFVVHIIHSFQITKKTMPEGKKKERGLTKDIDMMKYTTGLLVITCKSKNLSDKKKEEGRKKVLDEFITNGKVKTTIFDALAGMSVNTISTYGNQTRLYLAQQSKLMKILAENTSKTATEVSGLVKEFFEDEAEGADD
UniProt A0A0F7JIC2: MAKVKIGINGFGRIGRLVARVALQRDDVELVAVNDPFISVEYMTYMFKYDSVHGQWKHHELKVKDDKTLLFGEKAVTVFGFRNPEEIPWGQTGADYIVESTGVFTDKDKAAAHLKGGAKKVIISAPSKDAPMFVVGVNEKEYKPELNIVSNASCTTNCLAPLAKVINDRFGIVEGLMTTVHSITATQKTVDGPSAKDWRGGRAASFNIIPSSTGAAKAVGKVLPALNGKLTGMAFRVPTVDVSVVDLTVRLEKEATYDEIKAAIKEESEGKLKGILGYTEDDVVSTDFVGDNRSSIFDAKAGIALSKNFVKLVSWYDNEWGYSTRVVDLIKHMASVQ

For the assay, the target named is RSV CP-GFP (rice stripe virus coat protein fused to GFP) (rice stripe virus) (UniProt P68559). Kind of assay: affinity purification with mass spectrometry; CP-GFP expressed in N. benthamiana leaves as bait, total proteins incubated with GFP-Trap beads, eluate on SDS-PAGE, additional bands analysed by LC-MS/MS; non-fused GFP in parallel.

No constants are given. Whether binding was seen depends on the method and setting. Binding seen in cells or lysates may run through a third protein. A yes stands for co-enrichment or nearness to the bait. Other partners may have been found.

On to “cytosolic glyceraldehyde-3-phosphate dehydrogenase 2 of N. benthamiana (endogenous) (from UniProt A0A0F7JIC2 1-337)”, for which the binding result is reported as “binds”.
